PubChem BioAssay AID504774, Drosophila RNAi Screening Center – 2011
Screen: 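Fly genes whose loss alters survival after alkylation damage to DNA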 (primary screen). Cells: Drosophila Kc167 cells. Knock-down reagent: long dsRNA against Drosophila genes, about 0.25 µg dsRNA per well. Time to read-out: about 6 days: 3 days knock-down, then 3 days with or without MMS. Conditions: methyl methanesulphonate 0.004% (w/v) for 3 days after knock-down. Detection: 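Viability in wells given MMS, read as ATP luminescence, normalised by quantiles plate by plate and averaged across replicates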. Scale: mean viability with MMS and viability with MMS: higher = more surviving cells after MMS.
The screen tested about 23,000 reagents; this is a random part of those with a known target gene and a result. 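Values are quantile-normalised luminescence on an arbitrary scale; higher means more cells surviving MMS.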 The numbers tell different reagents against one gene apart. Names joined by + are all predicted targets of the reagent. No sequences are given here.

| gene | reagent | mean viability with MMS | viability with MMS, replicate 1 | viability with MMS, replicate 2 |
| --- | --- | --- | --- | --- |
| Cep135 (Centrosomal protein 135kDa) | 1 | 3.50e6 | 3.97e6 | 3.98e6 |
| Cep135 (Centrosomal protein 135kDa) | 2 | 3.68e6 | 4.19e6 | 4.09e6 |
| PyK (Pyruvate kinase) | 1 | 3.29e6 | 3.67e6 | 3.81e6 |
| Arpc3A (Actin-related protein 2/3 complex, subunit 3A) | 1 | 3.46e6 | 3.93e6 | 3.89e6 |
| Prosalpha4T2 (Proteasome alpha4 subunit, Testis-specific 2) | 1 | 3.48e6 | 3.95e6 | 3.91e6 |
| CG9799 | 1 | 3.22e6 | 3.74e6 | 3.62e6 |
| CG5866 | 1 | 3.59e6 | 4.05e6 | 4.13e6 |
| SPR (Sex peptide receptor) | 1 | 3.65e6 | 4.10e6 | 4.11e6 |
| SPR (Sex peptide receptor) | 2 | 4.10e6 | 4.60e6 | 5.06e6 |
| SPR (Sex peptide receptor) | 3 | 3.78e6 | 4.31e6 | 4.29e6 |
| SPR (Sex peptide receptor) | 4 | 3.47e6 | 3.95e6 | 3.95e6 |
| mars | 1 | 3.62e6 | 4.16e6 | 4.04e6 |
| Kif3C (Kinesin family member 3C) | 1 | 3.56e6 | 4.04e6 | 4.03e6 |
| Kif3C (Kinesin family member 3C) | 2 | 3.43e6 | 3.82e6 | 3.97e6 |
| rib (ribbon) | 1 | 3.64e6 | 4.15e6 | 4.12e6 |
| Syngr (Synaptogyrin) | 1 | 3.71e6 | 4.28e6 | 4.25e6 |
| CG30036 | 1 | 3.55e6 | 4.07e6 | 4.00e6 |
| Ube3a (Ubiquitin protein ligase E3A) | 1 | 3.57e6 | 4.04e6 | 4.06e6 |
| corn (cornetto) | 1 | 3.53e6 | 4.06e6 | 3.94e6 |
| corn (cornetto) | 2 | 3.55e6 | 4.06e6 | 3.97e6 |
| retn (retained) | 1 | 3.64e6 | 4.20e6 | 4.06e6 |
| CG18301 | 1 | 3.51e6 | 4.02e6 | 3.96e6 |
| CG31126 | 1 | 3.74e6 | 4.34e6 | 4.13e6 |
| CkIalpha (Casein kinase Ialpha) | 1 | 3.40e6 | 3.83e6 | 3.88e6 |
| CkIalpha (Casein kinase Ialpha) | 2 | 3.50e6 | 4.00e6 | 3.95e6 |
| CkIalpha (Casein kinase Ialpha) | 3 | 3.59e6 | 4.04e6 | 4.11e6 |
| Nubpl (NUBP iron-sulfur cluster assembly factor, mitochondrial) | 1 | 3.50e6 | 3.95e6 | 4.06e6 |

The list goes on, starting with the last 4 of the part before.
| gene | reagent | mean viability with MMS | viability with MMS, replicate 1 | viability with MMS, replicate 2 |
| --- | --- | --- | --- | --- |
| CkIalpha (Casein kinase Ialpha) | 1 | 3.40e6 | 3.83e6 | 3.88e6 |
| CkIalpha (Casein kinase Ialpha) | 2 | 3.50e6 | 4.00e6 | 3.95e6 |
| CkIalpha (Casein kinase Ialpha) | 3 | 3.59e6 | 4.04e6 | 4.11e6 |
| Nubpl (NUBP iron-sulfur cluster assembly factor, mitochondrial) | 1 | 3.50e6 | 3.95e6 | 4.06e6 |
| Obp56e (Odorant-binding protein 56e) | 1 | 3.55e6 | 4.06e6 | 3.99e6 |
| Dnaaf4 (Dynein axonemal assembly factor 4) | 1 | 3.56e6 | 3.99e6 | 4.11e6 |
| twr (twisted bristles roughened eye) | 1 | 3.61e6 | 4.06e6 | 4.12e6 |
| CG6709 + Hez | 1 | 3.55e6 | 3.96e6 | 4.09e6 |
| CG6709 + Hez | 2 | 3.65e6 | 4.08e6 | 4.15e6 |
| Dif (Dorsal-related immunity factor) | 1 | 3.65e6 | 4.10e6 | 4.14e6 |
| dy (dusky) | 1 | 3.85e6 | 4.27e6 | 4.41e6 |
| CG33299 | 1 | 3.50e6 | 4.08e6 | 3.86e6 |
| CG34355 | 1 | 3.58e6 | 4.09e6 | 4.03e6 |
| CG34355 | 2 | 3.70e6 | 4.10e6 | 4.28e6 |
| CG34355 | 3 | 3.83e6 | 4.24e6 | 4.41e6 |
| CG34355 | 4 | 3.64e6 | 4.10e6 | 4.13e6 |
| CG44325 | 1 | 3.35e6 | 3.65e6 | 3.94e6 |
| CG14089 | 1 | 3.54e6 | 4.08e6 | 3.93e6 |
| CG32161 | 1 | 3.50e6 | 3.97e6 | 3.97e6 |
| CG32720 | 1 | 3.53e6 | 4.06e6 | 3.96e6 |
| CG13921 | 1 | 3.59e6 | 4.00e6 | 4.13e6 |
| comm (commissureless) | 1 | 3.45e6 | 4.02e6 | 3.76e6 |
| GlyRS (Glycyl-tRNA synthetase) | 1 | 3.50e6 | 4.01e6 | 3.91e6 |
